Reference: PubChem BioAssay AID2685 (National Center for Advancing Translational Sciences (NCATS), 2010)
Some of the results follow. Shown are side measurements of this screen, not its main read-out; they come without a call. Most of these compounds were active or inconclusive in the main read-out, so they are no random draw. Words in brackets tell the shape of the fitted curve; partial curves, single points and poor fits give uncertain potencies.

Assay: qHTS Assay for Lipid Storage Modulators in Drosophila S3 Cells;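 as to cell number change: cells counted by Cell Tracker Red CMTPX staining in the red channel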
Settings: BODIPY lipid droplet fluorescence, 18-24 h; for cell number change: measured here: cell count max response, cells fed with added oleic acid
Outline: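 Laser-scanning cytometry quantifies lipid droplet accumulation (500–530 nm total intensity; droplet/cell object ratio) in oleic acid-fed (400 uM added) Drosophila S3 cells treated with a concentration series. 20 uM Triacsin C defined 100% inhibition.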

[1] = measured here: lipid fluorescence (Fed channel) AC50, cells fed with added oleic acid
[2] = measured here: cell number channel AC50, cells fed with added oleic acid

Molecule `CCOc1ccc(C(=O)N2CCN(CC(=O)N3CCCC3)CC2)cc1OCC` has a cell number change of -19.4%.

In the case of `Cc1ccc(CCN2CC(C(=O)NCCCN3CCOCC3)CC2=O)cc1` (stereo unspecified), the cell number change is reported as -27.5% and the AC50 [1] is reported as 16.4 µM [falling, partial curve].

For `CCCCN1C(=O)NC(NS(=O)(=O)c2ccc(N)cc2)(C(F)(F)F)C1=O` (stereo unspecified), the cell number change was -40.5%, the AC50 [2] was 29.1 µM [falling, single point] and the AC50 [1] was 6.51 µM [falling, single point].

In the case of `CC(C)(C)C(=O)NC(=S)NNC(=O)c1ccncc1`, the cell number change is reported as 0.709%.

`Cc1ccc(C)c(Nc2ccc3nonc3c2[N+](=O)[O-])c1` showed a cell number change of -18%.

With `Nn1cnnc1N/N=C\c1ccc(-c2ccccc2[N+](=O)[O-])o1` the cell number change was -18.3% and the AC50 [1] was 0.13 µM [rising, full curve, poor fit].

For `CCc1ccc2[nH]c(=O)c(CN(CCN(C)C)C(=O)Nc3ccccc3OC)cc2c1`, the cell number change was 11.4% and the AC50 [2] was 0.0731 µM [falling, full curve, poor fit].

For `COc1ccc(OC)c(CCNC(=O)C(C)n2nc(C)c3c(C)n(-c4ccccc4)nc3c2=O)c1` (stereo unspecified), the cell number change was -4.72% and the AC50 [2] was 2.91 µM [rising, partial curve].

For `CCOC(=O)C(C)Sc1nnc(NC(=O)c2ccc3c(c2)OCO3)s1` (stereo unspecified), the cell number change was 16.1% and the AC50 [1] was 29.1 µM [rising, single point].

In the case of `CCN(C(=O)c1cccc(F)c1)c1ccccc1C`, the cell number change is reported as -3.13%.

With `Nc1ccccc1N1CCOCC1` the cell number change was -54.6%, the AC50 [2] was 3.66 µM [falling, full curve] and the AC50 [1] was 3.66 µM [falling, full curve].

For `COc1ccc(N2C(=O)C3C4C=CC(C4)C3C2=O)nn1` (stereo unspecified), the cell number change was -24.7%.

For `CC(C)c1c(C(=O)N/N=C/c2ccc(OCc3ccc(F)cc3)cc2)nnn1-c1nonc1N`, the cell number change was 13.7% and the AC50 [1] was 29.1 µM [falling, single point].

With `O=C(NC1CCN(Cc2ccccc2)CC1)C1CCN(S(=O)(=O)c2ccccc2)CC1` the cell number change was 2.78% and the AC50 [1] was 29.1 µM [falling, single point].

In the case of `Fc1cccc(Nc2ncnc3sc4c(c23)CCC4)c1`, the cell number change is reported as 38.4%, the AC50 [2] is reported as 0.58 µM [rising, full curve] and the AC50 [1] is reported as 0.411 µM [rising, full curve, poor fit].

With `Cc1nnc(SCc2nc3sc4c(c3c(=O)[nH]2)CCCC4)[nH]c1=O` the cell number change was 17.2%.

Molecule `CCCCCCCc1nc2nc(C)c(Br)c(=O)n2[nH]1` has a cell number change of -11.7%.

Work on `COC(=O)CNC(=O)CNC(=O)c1nn(-c2ccc(OC)c(Cl)c2)c(=O)c2ccccc12` yielded a cell number change of 4.14%.

In the case of `C=CCNCCOc1cccc(Br)c1`, the AC50 [2] is reported as 0.326 µM [falling, partial curve, poor fit] and the AC50 [1] is reported as 29.1 µM [falling, single point].

With `CSc1nc2ccccc2cc1/C=C(\C#N)c1cccc(Cl)c1` the cell number change was 164%, the AC50 [2] was 29.1 µM [rising, single point] and the AC50 [1] was 23.1 µM [rising, partial curve].

With `Cc1ccccc1C(=O)NNC(=O)C1CCCN(c2ncccn2)C1` (stereo unspecified) the cell number change was 10.9%.

For `CNC(=O)CSc1nc2cccnc2n1C1CCCCC1`, the cell number change was -2.62% and the AC50 [1] was 1.03 µM [falling, single point].

In the case of `CCOc1ccccc1CN1CCC(O)CC1`, the cell number change is reported as -52.4%, the AC50 [2] is reported as 0.731 µM [falling, full curve, poor fit] and the AC50 [1] is reported as 0.731 µM [falling, full curve].

For `O=C(NCc1ccc(Cl)cc1)c1ccc(NC(=O)C2CCCO2)cc1` (stereo unspecified), the AC50 [1] was 0.58 µM [rising, partial curve, poor fit].

With `CCOc1ccc(NC(=O)CN2CCN(CC(=O)Nc3cc(OC)cc(OC)c3)CC2)cc1` the cell number change was 19.5% and the AC50 [1] was 29.1 µM [rising, single point].

With `CCOc1ccc(N2CC(C(=O)Nc3nnc(SCCOC)s3)CC2=O)cc1` (stereo unspecified) the cell number change was -10.5% and the AC50 [1] was 3.16 µM [falling, single point].

With `Cc1ccc2cc(C#N)c(NCc3ccco3)nc2c1` the cell number change was 19.7%.

With `Cc1cc(C)c(C)c(S(=O)(=O)N2CCC(C(=O)NNC(=O)c3ccccc3O)CC2)c1C` the cell number change was 132% and the AC50 [2] was 29.1 µM [rising, single point].

In the case of `C[C@@H](CSc1ccc(Br)cc1)CN1CC[C@H](C(C)(C)C)CCC1=O`, the cell number change is reported as -59.8%, the AC50 [2] is reported as 29.1 µM [falling, single point] and the AC50 [1] is reported as 3.66 µM [rising, partial curve, poor fit].

For `COc1ccccc1C(=O)Nc1sc(C(=O)N2CCCC2)c(C)c1C#N`, the cell number change was -62.9%, the AC50 [2] was 4.61 µM [falling, full curve] and the AC50 [1] was 2.59 µM [falling, full curve, poor fit].

With `COc1ccc2c(c1)C(C1=C(O)CC(C)(C)CC1=O)C1=C(CC(C)(C)CC1=O)O2` (stereo unspecified) the cell number change was 23.4% and the AC50 [1] was 1.46 µM [falling, full curve].

With `CCc1ccccc1N(CC)C(=O)CCc1nc(-c2ccc(C)cc2)no1` the cell number change was 2.77% and the AC50 [1] was 4.11 µM [falling, full curve, poor fit].

With `C=CCN1C(=NC(=O)CCCC(=O)O)SC2CS(=O)(=O)CC21` (stereo unspecified) the cell number change was -80.1%, the AC50 [2] was 18.4 µM [falling, partial curve] and the AC50 [1] was 0.231 µM [falling, full curve].

In the case of `O=C(CC1CCCCC1)N1CCCC(c2nc(-c3ccc(S(=O)(=O)N4CCCC4)cc3)no2)C1` (stereo unspecified), the cell number change is reported as -5.68% and the AC50 [1] is reported as 0.0058 µM [falling, full curve].

With `COc1cc(/C=C/c2[nH]c(=O)[nH]c(=O)c2[N+](=O)[O-])ccc1OCCC(C)C` the cell number change was -20.4% and the AC50 [1] was 16.4 µM [falling, single point].

For `CCOC(=O)c1cnc(Cc2ccccc2)[nH]c1=O`, the cell number change was 60.2%, the AC50 [2] was 14.6 µM [rising, partial curve, poor fit] and the AC50 [1] was 29.1 µM [rising, single point].

In the case of `CC(=O)NC(c1cc(Cl)c2cccnc2c1O)C1CC1` (stereo unspecified), the cell number change is reported as 7.05% and the AC50 [1] is reported as 1.16 µM [falling, single point].

For `Cc1ccc(C(=O)C2CCN(CC(=O)NC3CCCCC3)CC2)cc1`, the cell number change was 10.8% and the AC50 [1] was 4.61 µM [rising, full curve, poor fit].

In the case of `O=C(O)c1ccc(Nc2nc3ccccc3nc2NS(=O)(=O)c2cccs2)cc1`, the cell number change is reported as 7.65% and the AC50 [1] is reported as 29.1 µM [rising, single point].

For `CC(=O)Nc1ccc(S(=O)(=O)NCCc2cc3c(C)ccc(C)c3[nH]c2=O)cc1`, the cell number change was 58.6% and the AC50 [2] was 16.4 µM [rising, partial curve].

With `Cc1cc(C(=O)O[C@H]2[C@H](Cc3ccccc3)NS(=O)(=O)[C@H]3C[C@@H]4C=C[C@]23O4)ccc1[N+](=O)[O-]` the cell number change was -5.03%, the AC50 [2] was 1.3 µM [falling, partial curve] and the AC50 [1] was 1.84 µM [falling, partial curve].

For `NCCOc1cnn(-c2ccccc2Cl)c(=O)c1Cl`, the cell number change was 25.2% and the AC50 [1] was 29.1 µM [falling, partial curve].

`O=C(NC1CC1)C1CCN(C2CCN(C(=O)/C=C/c3cccc(F)c3F)CC2)CC1` gave a cell number change of -0.575%.

In the case of `O=C(CCCc1ccccc1)Nc1ccc(S(=O)(=O)N2CCOCC2)cc1`, the cell number change is reported as -16.9% and the AC50 [1] is reported as 18.4 µM [falling, single point].

In the case of `O=C(CCn1cnc2ccccc2c1=O)Nc1ccc(S(=O)(=O)N2CCCC2)cc1`, the cell number change is reported as -3.48%, the AC50 [2] is reported as 0.731 µM [falling, full curve, poor fit] and the AC50 [1] is reported as 20.6 µM [falling, single point].

Work on `CN1CCN(S(=O)(=O)c2ccc(N3CCc4ccccc4C3)nc2)CC1` yielded a cell number change of -17.5%.

For `Cc1cccc(C)c1NC(=O)C1CCCN1C(=O)OC(C)(C)C` (stereo unspecified), the cell number change was 4.64% and the AC50 [1] was 29.1 µM [rising, single point].

`O=C(Nn1cnc2ccccc2c1=O)c1cccc(Cl)c1` gave a cell number change of 15.8%.

In the case of `COc1ccc(NC(=O)CN(C)S(=O)(=O)c2ccc3c(c2)OCCO3)c2ncccc12`, the cell number change is reported as -0.0153% and the AC50 [1] is reported as 4.61 µM [rising, single point].

In the case of `COc1ccc(NC(=O)c2cc(-c3ccc(OC)c(OC)c3)on2)cc1OC`, the cell number change is reported as 46.8%, the AC50 [2] is reported as 5.17 µM [rising, full curve] and the AC50 [1] is reported as 1.3 µM [rising, partial curve].

With `Cc1ccc2cc3c(N)c(C(=O)Nc4c(C)[nH]c(=O)[nH]c4=O)sc3nc2c1` the cell number change was 61.5%, the AC50 [2] was 6.51 µM [rising, single point] and the AC50 [1] was 1.64 µM [falling, partial curve].

`CC(C)C[C@H](NC(=O)c1[nH]cnc1C(=O)N[C@@H](C)c1ccccc1)C(=O)OCc1ccccc1` showed a cell number change of -19.3%.

With `O=C(NCc1ccccc1)C1CCN(S(=O)(=O)c2cc([N+](=O)[O-])ccc2Cl)CC1` the cell number change was -4.4%, the AC50 [2] was 0.00461 µM [rising, full curve, poor fit] and the AC50 [1] was 25.9 µM [falling, partial curve].

For `COCCOc1ccc(C(F)(F)F)cc1NC(=O)c1ccc(F)cc1`, the cell number change was 10.4% and the AC50 [1] was 29.1 µM [rising, partial curve].

In the case of `CCOC(=O)c1sc(Nc2nc3ccc(OC)cc3s2)cc1C`, the cell number change is reported as -19% and the AC50 [1] is reported as 29.1 µM [falling, single point].

In the case of `Cc1cc(NC(=O)c2cccc(S(=O)(=O)N(C)C)c2)n(-c2ccccn2)n1`, the AC50 [2] is reported as 0.291 µM [rising, full curve] and the AC50 [1] is reported as 0.092 µM [rising, full curve, poor fit].

In the case of `COc1ccccc1C(=O)NCCC(=O)N1CCCCC1`, the cell number change is reported as 27.9% and the AC50 [2] is reported as 4.11 µM [rising, full curve, poor fit].

For `Cc1cc(NC(=O)CC(C)C)c(=O)n(Cc2cccc(F)c2)c1`, the cell number change was 2.64% and the AC50 [1] was 0.231 µM [rising, full curve, poor fit].

Work on `CC1(C2CC2)NC(=O)N(CC(=O)N2CCN(S(=O)(=O)c3ccc(F)c(F)c3)CC2)C1=O` (stereo unspecified) yielded a cell number change of -13.6%.
